PubChem BioAssay AID493014 (National Center for Advancing Translational Sciences (NCATS), 2011)
The list shows a part of the results. Shown are side measurements of this screen, not its main read-out; they come without a call. Compounds called inactive in the main read-out are mostly missing here. Potencies come from curve fits of mixed quality, noted in brackets.

Assay: qHTS Assay to Find Inhibitors of Chronic Active B-Cell Receptor Signaling
Conditions: ABC-DLBCL IkBa-CBG/CBR reporter, luminescence ratio (green luciferase fused to IkBa over red control in TMD8 lymphoma cells), 4 h
How it was run: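 TMD8 ABC-DLBCL cells carrying doxycycline-inducible green luciferase fused to IkappaBalpha plus unfused red luciferase were exposed to compounds (up to 46 uM) for 4 hrs at 37C. Activity came from the overlap-corrected green/red luminescence ratio.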

[1] = measured here: CBR red luminescence, cell number
[2] = measured here: IkBa-CBG green luminescence

SMILES	AC50 [1]	AC50 [2]
O=C(Nc1cnn(Cc2ccc(F)cc2)c1)c1cnccn1	5.17 µM [rising, partial curve]	
NS(=O)(=O)c1ccccc1NC(=O)c1c(O)c2ccccc2[nH]c1=O	7.94 µM [falling, partial curve, poor fit]	
O=C(NN1C(=O)C2C3C=CC(O3)C2C1=O)c1cccc(O)c1 (stereo not given)	5.8 µM [falling, partial curve, poor fit]	
COc1ccc(Br)cc1/C=C/C(=O)c1ccc(NC(C)=O)cc1	1.3 µM [falling, full curve, poor fit]	
COc1ccc2nc(SCC(=O)Nc3ccccc3OC)[nH]c2c1	3.16 µM [rising, full curve]	
Cc1cccc(/C=N/NC(=O)NC2CCCCC2)c1	1.64 µM [rising, partial curve, poor fit]	
CCC1CCC(c2nnc(-c3ccc(Br)cc3)o2)CC1 (stereo not given)	18.4 µM [rising, partial curve]	
COc1cccc(-c2nn(-c3ccccc3)cc2CN(C)Cc2c(C)nc3ccccn23)c1	15.8 µM [falling, partial curve, poor fit]	
COc1ccccc1CNC(=O)CC1Sc2ccccc2NC1=O (stereo not given)	6.31 µM [falling, single point]	
Cn1nnnc1SCc1csc(C2C(C#N)=C(N)OC3=C2C(=O)CCC3)c1 (stereo not given)	4.47 µM [falling, full curve, poor fit]	
CCC1(CC)C(=O)NC(=O)NC1=NCCc1c[nH]c2ccccc12	11.6 µM [falling, single point]	
O=C(N/N=C/c1cn(-c2cccs2)nc1-c1ccccc1)c1ccc(O)cc1	8.2 µM [falling, partial curve]	
CC(C)n1cnc2c(Nc3cccc(Cl)c3)nc(N(CCO)CCCO)nc21	7.08 µM [falling, full curve]	
O=C(NCCC1=CCCCC1)c1cnc2n(c1=O)CCS2	14.6 µM [rising, partial curve, poor fit]	
Cc1ccc2c(N)c(C(=O)c3ccccc3)sc2n1	22.4 µM [falling, single point]	
O=C(NCCN1CCOCC1)c1cc(-c2cccs2)on1	0.184 µM [falling, full curve, poor fit]	
COc1ccccc1CC(=O)NCCCc1ccccc1	12.6 µM [rising, partial curve, poor fit]	
N#Cc1nc(-c2ccccc2F)oc1NCCc1ccccn1	3.98 µM [rising, partial curve, poor fit]	
Cn1ccnc1SCC(=O)c1c(N)n(C)c(=O)n(C)c1=O	8.2 µM [falling, partial curve, poor fit]	
Cc1cc(/C=N/NC(=O)c2c(Br)cnn2C)c(C)n1-c1cccc(Br)c1	29.1 µM [falling, single point]	
COCCCNc1nc2c(-c3cccc(C(F)(F)F)c3)nnn2c2ccccc12	12.6 µM [rising, partial curve]	

SMILES	AC50 [1]	AC50 [2]
Cc1ccc(C(=O)ONc2ccc(N=NC(=O)c3ccccc3O)cc2)cc1	0.103 µM [falling, full curve]	
Brc1ccc(/C=N/Nc2ccccc2)cc1	2.06 µM [rising, partial curve, poor fit]	
Cn1c(N)c(C(=O)CSc2nnc(-c3c[nH]c4ccccc34)n2C2CC2)c(=O)[nH]c1=O	0.103 µM [rising, full curve, poor fit]	
O=C(COc1ccc(Br)cc1Cl)NC(=S)N1CCc2ccccc21	23.1 µM [rising, partial curve, poor fit]	20.6 µM [falling, single point]
CN(C(=O)COC(=O)c1ccc(Cl)cc1N)C1CCCCC1	6.31 µM [rising, full curve]	
S=c1[nH]nc([C@@H]2C[C@H]2c2ccccc2)n1-c1ccccc1	29.1 µM [rising, single point]	
CCOc1ccc(NC(=O)c2sc3nc(N4CCOCC4)c4c(c3c2N)CC(C)(C)OC4)cc1	15.8 µM [rising, partial curve, poor fit]	
Cc1cccc(N2CCN(C(=O)c3cc4c(=O)n(C)c5ccccc5c4n3C)CC2)c1C	2.91 µM [rising, full curve, poor fit]	
O=C(CC(C(=O)O)c1c[nH]c2ccccc12)c1ccccc1 (stereo not given)	7.94 µM [falling, partial curve, poor fit]	
O=C1Nc2ccccc2C12OCCCO2	10 µM [rising, partial curve, poor fit]	
Cc1cc(C(=O)NN=C2CCCC2)c2ccccc2n1	16.4 µM [rising, single point]	29.1 µM [falling, partial curve, poor fit]
CCOC(=O)c1c(C)[nH]c(O)c1C=Nc1ccccc1	2.51 µM [rising, full curve]	
NS(=O)(=O)c1ccc(NC(=S)NCc2ccco2)cc1	4.47 µM [falling, full curve, poor fit]	
CC1=CC(=O)C(C(C)C)=C/C1=C(\c1cc(C(C)C)c(OP(=O)(O)O)cc1C)c1ccccc1C(=O)O	14.1 µM [falling, partial curve, poor fit]	
O=C(COc1ccccc1Br)NCc1ccccn1	0.326 µM [rising, full curve]	
COCC(=O)Nc1nc2ccc(S(C)(=O)=O)cc2s1	7.08 µM [rising, partial curve, poor fit]	
CC(C)(C)OC(=O)N1CCC[C@H]1c1nnc(SCc2ccccc2F)o1	3.55 µM [rising, partial curve, poor fit]	
CC(=O)Nc1ccc(S(=O)(=O)NC2=C(N3CCN(Cc4ccccc4)CC3)C(=O)c3ccccc3C2=O)cc1	3.26 µM [rising, single point]	
O=C1C2CC=CCC2C(=O)N1Cc1nnc(-c2ccc(Cl)cc2)o1 (stereo not given)	8.91 µM [rising, partial curve, poor fit]	
O=C(CCl)Nc1cc(S(=O)(=O)N2CCCCCC2)ccc1Cl		23.1 µM [falling, partial curve, poor fit]
Cc1c(C(=O)NCC(C)C)sc2nc(-c3ccc(F)cc3)cn12	1.84 µM [rising, full curve, poor fit]	

In the list so far, these have a COOH group:
SMILES	AC50 [1]	AC50 [2]
O=C(CC(C(=O)O)c1c[nH]c2ccccc12)c1ccccc1 (stereo not given)	7.94 µM [falling, partial curve, poor fit]	
CC1=CC(=O)C(C(C)C)=C/C1=C(\c1cc(C(C)C)c(OP(=O)(O)O)cc1C)c1ccccc1C(=O)O	14.1 µM [falling, partial curve, poor fit]	

(next part)

SMILES	AC50 [1]	AC50 [2]
CN(Cc1ccc(F)cc1)S(=O)(=O)c1nnc(NC(=O)c2ccccc2)s1	20 µM [rising, partial curve, poor fit]	
COCCOC(=O)c1c(NC(=O)CNc2ccc(C)c(F)c2)sc(C(N)=O)c1C	3.16 µM [rising, partial curve, poor fit]	
O=C(COc1ccccc1)N/N=C/c1cc2c(cc1[N+](=O)[O-])OCO2	20.6 µM [rising, single point]	
O=C(c1ccc(Cn2cc(Br)cn2)cc1)N1N=C(C(F)F)CC1(O)C(F)F (stereo not given)	7.31 µM [falling, partial curve, poor fit]	
CCOc1nc(OCC)nc(N2CCC(C)CC2)n1		23.1 µM [falling, partial curve, poor fit]
Cc1ccc(C(=O)Nc2cccc(C(=O)NC3CCCC3)c2)cc1	10 µM [falling, partial curve]	
CCOC(=O)c1nc(N)c(=O)n(-c2ccccc2)n1	7.94 µM [falling, partial curve]	
C=CCN(C(=O)CSc1nnnn1C)c1nc(-c2ccccc2)cs1	5.8 µM [rising, partial curve, poor fit]	
CCC(=O)c1ccc(OCCN2CCOCC2)cc1	0.461 µM [falling, partial curve, poor fit]	
O=C(Nc1ccccc1C(=O)NC(Cc1ccccc1)C(=O)O)c1ccccc1 (stereo not given)	28.2 µM [falling, single point]	
Cc1ccc(C)c(NC(=O)c2cnn(-c3ccccc3)c2C)c1	8.91 µM [falling, partial curve, poor fit]	
Cc1cc(C)cc(N/C(N)=N/c2nc(C)cc(C)n2)c1	13 µM [falling, partial curve, poor fit]	
C#CCOCCOCCOCCNc1nc(N2CCN(C(=O)[C@H](CCC(=O)O)n3cc([C@@H](N)[C@H](C)CC)nn3)CC2)nc(N2CCN(C(=O)[C@H](CCC(=O)O)n3cc([C@@H](N)CCSC)nn3)CC2)n1	6.51 µM [rising, single point]	
N#CCCN1CCN(C(=S)c2ccc(-c3ccc(Cl)cc3)o2)CC1	0.326 µM [rising, full curve, poor fit]	
O=C(OCCNc1ncc(C(F)(F)F)cc1Cl)c1ccc(S(=O)(=O)N2CCOCC2)cc1	11.2 µM [rising, partial curve]	
Cc1ccc(-c2ccccc2NC(=O)CCl)o1	8.91 µM [falling, partial curve]	
CS/C(N)=N/N=C/c1ccc([N+](=O)[O-])cc1	35.5 µM [falling, single point]	
Cc1ccc(-c2n[nH]c(=S)n2/N=C/c2cccs2)cc1	0.651 µM [falling, partial curve, poor fit]	
CCOC(=O)N1CCN(C(=O)c2cc3c(s2)-c2ccc(Cl)cc2S(=O)(=O)C3)CC1	35.5 µM [falling, single point]	
CCn1c2ccccc2c2cc(NC(=O)C/C(C)=N/NC(=O)c3ccccc3N)ccc21	12.6 µM [falling, partial curve, poor fit]	
O=C(Cc1c(F)cccc1Cl)N1CCOCC1	6.31 µM [rising, partial curve, poor fit]	

Compounds from the list above containing a furan ring, fused or not (3):
SMILES	AC50 [1]	AC50 [2]
NS(=O)(=O)c1ccc(NC(=S)NCc2ccco2)cc1	4.47 µM [falling, full curve, poor fit]	
N#CCCN1CCN(C(=S)c2ccc(-c3ccc(Cl)cc3)o2)CC1	0.326 µM [rising, full curve, poor fit]	
Cc1ccc(-c2ccccc2NC(=O)CCl)o1	8.91 µM [falling, partial curve]	
